Reference: publication PMC4492089, “FOXM1 binds directly to non-consensus sequences in the human genome”
Where two headings read alike, the source gives them in different places. These are yes or no findings as the source states them, for the method shown. Binding seen in cells or lysates may run through a third protein. These calls come from enrichment with a bait or labelling near it, and not all partners need be listed. Sequences can lack the tags named with a protein.

Amino acid sequences for entries named in this document (tags omitted).
UniProt P10244: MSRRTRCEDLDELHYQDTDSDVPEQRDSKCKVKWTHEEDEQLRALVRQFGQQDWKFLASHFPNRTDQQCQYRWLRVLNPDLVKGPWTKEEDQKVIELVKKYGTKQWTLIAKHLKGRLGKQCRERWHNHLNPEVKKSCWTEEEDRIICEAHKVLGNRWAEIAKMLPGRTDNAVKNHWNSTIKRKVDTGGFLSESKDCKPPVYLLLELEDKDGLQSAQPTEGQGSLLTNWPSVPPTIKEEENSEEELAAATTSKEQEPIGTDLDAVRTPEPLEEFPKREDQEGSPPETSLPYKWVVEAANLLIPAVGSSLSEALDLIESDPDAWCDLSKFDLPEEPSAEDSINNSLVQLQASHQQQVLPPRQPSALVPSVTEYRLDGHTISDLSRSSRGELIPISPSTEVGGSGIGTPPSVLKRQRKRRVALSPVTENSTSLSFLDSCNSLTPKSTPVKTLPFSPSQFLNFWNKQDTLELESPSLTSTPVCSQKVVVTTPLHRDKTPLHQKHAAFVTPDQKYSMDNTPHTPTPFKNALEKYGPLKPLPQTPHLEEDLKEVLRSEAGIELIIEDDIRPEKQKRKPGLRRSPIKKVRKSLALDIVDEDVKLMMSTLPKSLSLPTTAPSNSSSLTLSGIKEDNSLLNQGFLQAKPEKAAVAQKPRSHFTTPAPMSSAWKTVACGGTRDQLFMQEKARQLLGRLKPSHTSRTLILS
UniProt Q5TKA1: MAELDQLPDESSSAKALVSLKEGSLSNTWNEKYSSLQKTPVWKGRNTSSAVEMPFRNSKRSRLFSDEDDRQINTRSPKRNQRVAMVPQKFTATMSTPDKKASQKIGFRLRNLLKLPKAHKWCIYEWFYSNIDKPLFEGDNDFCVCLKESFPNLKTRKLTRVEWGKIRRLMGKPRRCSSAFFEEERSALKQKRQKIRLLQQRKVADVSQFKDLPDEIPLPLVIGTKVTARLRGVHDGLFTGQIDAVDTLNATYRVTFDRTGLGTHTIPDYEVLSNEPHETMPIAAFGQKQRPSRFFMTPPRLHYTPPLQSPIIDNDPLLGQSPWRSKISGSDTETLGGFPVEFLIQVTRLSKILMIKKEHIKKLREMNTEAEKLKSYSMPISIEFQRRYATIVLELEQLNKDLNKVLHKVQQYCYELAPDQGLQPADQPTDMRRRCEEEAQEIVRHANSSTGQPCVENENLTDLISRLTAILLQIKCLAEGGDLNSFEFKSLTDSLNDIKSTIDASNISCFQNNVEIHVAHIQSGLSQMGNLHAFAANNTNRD
UniProt Q96GY3: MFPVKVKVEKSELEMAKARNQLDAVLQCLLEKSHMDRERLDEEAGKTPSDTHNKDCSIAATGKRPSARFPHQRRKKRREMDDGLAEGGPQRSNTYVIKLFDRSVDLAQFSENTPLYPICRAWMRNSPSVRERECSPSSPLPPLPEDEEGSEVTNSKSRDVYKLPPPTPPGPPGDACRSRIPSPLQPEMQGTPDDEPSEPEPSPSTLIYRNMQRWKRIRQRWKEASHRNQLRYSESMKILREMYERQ
UniProt Q6MZP7: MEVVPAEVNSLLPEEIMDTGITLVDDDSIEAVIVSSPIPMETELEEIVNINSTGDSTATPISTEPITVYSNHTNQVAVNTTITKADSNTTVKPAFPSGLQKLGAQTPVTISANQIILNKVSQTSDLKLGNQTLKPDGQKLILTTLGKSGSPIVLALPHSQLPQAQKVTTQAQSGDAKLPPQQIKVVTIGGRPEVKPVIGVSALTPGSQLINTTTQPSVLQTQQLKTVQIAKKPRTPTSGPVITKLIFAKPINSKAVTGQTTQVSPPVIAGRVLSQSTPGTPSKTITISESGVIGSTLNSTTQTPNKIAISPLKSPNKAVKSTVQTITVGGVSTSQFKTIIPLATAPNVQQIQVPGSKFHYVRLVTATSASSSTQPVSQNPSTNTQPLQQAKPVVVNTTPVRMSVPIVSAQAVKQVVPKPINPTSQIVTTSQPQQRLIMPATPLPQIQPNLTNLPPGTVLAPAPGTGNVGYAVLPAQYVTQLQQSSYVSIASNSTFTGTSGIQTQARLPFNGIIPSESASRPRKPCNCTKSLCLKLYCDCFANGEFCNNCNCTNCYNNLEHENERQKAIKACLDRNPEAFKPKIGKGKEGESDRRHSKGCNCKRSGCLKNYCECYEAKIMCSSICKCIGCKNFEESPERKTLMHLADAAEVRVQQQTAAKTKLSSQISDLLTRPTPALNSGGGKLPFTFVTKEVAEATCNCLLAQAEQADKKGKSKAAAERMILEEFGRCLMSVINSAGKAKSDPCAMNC
UniProt P36873: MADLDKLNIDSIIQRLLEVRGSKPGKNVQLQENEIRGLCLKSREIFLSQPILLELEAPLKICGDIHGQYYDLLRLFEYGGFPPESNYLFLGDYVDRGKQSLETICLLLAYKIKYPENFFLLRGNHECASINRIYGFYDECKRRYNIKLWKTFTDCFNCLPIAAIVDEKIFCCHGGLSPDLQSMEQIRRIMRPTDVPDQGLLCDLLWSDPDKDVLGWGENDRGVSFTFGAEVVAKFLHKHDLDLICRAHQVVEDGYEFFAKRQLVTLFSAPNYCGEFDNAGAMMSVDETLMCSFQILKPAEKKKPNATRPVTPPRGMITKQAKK
UniProt Q00403: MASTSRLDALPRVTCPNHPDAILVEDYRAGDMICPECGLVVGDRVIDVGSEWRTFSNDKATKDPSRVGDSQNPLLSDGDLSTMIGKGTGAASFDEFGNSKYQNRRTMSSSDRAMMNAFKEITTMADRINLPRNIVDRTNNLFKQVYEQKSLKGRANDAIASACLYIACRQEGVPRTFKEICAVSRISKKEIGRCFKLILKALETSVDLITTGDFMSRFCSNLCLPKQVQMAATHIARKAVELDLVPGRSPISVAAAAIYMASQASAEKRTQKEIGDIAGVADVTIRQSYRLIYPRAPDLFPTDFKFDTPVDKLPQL

B1: PPM1G (enzyme, UniProt O15355 1-546)
chain: MGAYLSQPNTVKCSGDGVGAPRLPLPYGFSAMQGWRVSMEDAHNCIPELDSETAMFSVYDGHGGEEVALYCAKYLPDIIKDQKAYKEGKLQKALEDAFLAIDAKLTTEEVIKELAQIAGRPTEDEDEKEKVADEDDVDNEEAALLHEEATMTIEELLTRYGQNCHKGPPHSKSGGGTGEEPGSQGLNGEAGPEDSTRETPSQENGPTAKAYTGFSSNSERGTEAGQVGEPGIPTGEAGPSCSSASDKLPRVAKSKFFEDSEDESDEAEEEEEDSEECSEEEDGYSSEEAENEEDEDDTEEAEEDDEEEEEEMMVPGMEGKEEPGSDSGTTAVVALIRGKQLIVANAGDSRCVVSEAGKALDMSYDHKPEDEVELARIKNAGGKVTMDGRVNGGLNLSRAIGDHFYKRNKNLPPEEQMISALPDIKVLTLTDDHEFMVIACDGIWNVMSSQEVVDFIQSKISQRDENGELRLLSSIVEELLDQCLAPDTSGDGTGCDNMTCIIICFKPRNTAELQPESGKRKLEEVLSTEGAEENGNSDKKKKAKRD
B2: E3 Ubiquitin-Protein Ligase UHRF1 (enzyme, UniProt Q96T88 1-793)
chain: MWIQVRTMDGRQTHTVDSLSRLTKVEELRRKIQELFHVEPGLQRLFYRGKQMEDGHTLFDYEVRLNDTIQLLVRQSLVLPHSTKERDSELSDTDSGCCLGQSESDKSSTHGEAAAETDSRPADEDMWDETELGLYKVNEYVDARDTNMGAWFEAQVVRVTRKAPSRDEPCSSTSRPALEEDVIYHVKYDDYPENGVVQMNSRDVRARARTIIKWQDLEVGQVVMLNYNPDNPKERGFWYDAEISRKRETRTARELYANVVLGDDSLNDCRIIFVDEVFKIERPGEGSPMVDNPMRRKSGPSCKHCKDDVNRLCRVCACHLCGGRQDPDKQLMCDECDMAFHIYCLDPPLSSVPSEDEWYCPECRNDASEVVLAGERLRESKKKAKMASATSSSQRDWGKGMACVGRTKECTIVPSNHYGPIPGIPVGTMWRFRVQVSESGVHRPHVAGIHGRSNDGAYSLVLAGGYEDDVDHGNFFTYTGSGGRDLSGNKRTAEQSCDQKLTNTNRALALNCFAPINDQEGAEAKDWRSGKPVRVVRNVKGGKNSKYAPAEGNRYDGIYKVVKYWPEKGKSGFLVWRYLLRRDDDEPGPWTKEGKDRIKKLGLTMQYPEGYLEALANREREKENSKREEEEQQEGGFASPRTGKGKWKRKSAGGGPSRAGSPRRTSKKTKVEPYSLTAQQSSLIREDKSNAKLWNEVLASLKDRPASGSPFQLFLSKVEETFQCICCQELVFRPITTVCQHNVCKDCLDRSFRAQVFSCPACRYDLGRSYAMQVNQPLQTVLNQLFPGYGNGR

Tests used:
Assay in all cases: affinity purification with mass spectrometry; RIME: HEK293 cells expressing GFP only, GFP-FOXM1 WT or GFP-FOXM1 R286A cross-linked with 1 % formaldehyde for 7 min; sonicated chromatin lysate immunoprecipitated with anti-GFP antibody (ab290) on protein G Dynal beads, washed 10X with RIPA buffer; LC-MS/MS; proteins found in the GFP only cell line not considered
[1] = target: T1, GFP-FOXM1B R286A (human) (UniProt Q08050)
T1 sequence: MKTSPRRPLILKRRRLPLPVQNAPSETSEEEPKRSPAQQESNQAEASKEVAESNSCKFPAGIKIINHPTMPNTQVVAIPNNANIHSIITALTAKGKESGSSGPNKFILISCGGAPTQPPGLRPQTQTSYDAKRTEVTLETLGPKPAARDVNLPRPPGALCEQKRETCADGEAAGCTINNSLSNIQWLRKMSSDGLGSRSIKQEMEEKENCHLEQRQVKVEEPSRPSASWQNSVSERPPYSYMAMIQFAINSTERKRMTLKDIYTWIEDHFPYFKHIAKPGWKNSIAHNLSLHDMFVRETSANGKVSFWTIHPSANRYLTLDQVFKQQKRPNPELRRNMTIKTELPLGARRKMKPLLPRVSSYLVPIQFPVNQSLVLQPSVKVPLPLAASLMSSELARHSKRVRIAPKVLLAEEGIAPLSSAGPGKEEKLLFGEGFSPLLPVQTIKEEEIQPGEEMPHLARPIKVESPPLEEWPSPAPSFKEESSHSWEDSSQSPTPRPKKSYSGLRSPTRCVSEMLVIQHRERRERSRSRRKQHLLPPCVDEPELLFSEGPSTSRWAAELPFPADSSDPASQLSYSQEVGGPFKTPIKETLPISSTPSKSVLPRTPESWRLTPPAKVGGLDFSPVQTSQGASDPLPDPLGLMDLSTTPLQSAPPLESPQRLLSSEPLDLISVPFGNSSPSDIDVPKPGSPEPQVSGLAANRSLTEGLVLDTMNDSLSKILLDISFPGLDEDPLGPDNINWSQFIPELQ

[2] = target: T2, GFP-FOXM1B wild type (human) (UniProt Q08050)
T2 sequence: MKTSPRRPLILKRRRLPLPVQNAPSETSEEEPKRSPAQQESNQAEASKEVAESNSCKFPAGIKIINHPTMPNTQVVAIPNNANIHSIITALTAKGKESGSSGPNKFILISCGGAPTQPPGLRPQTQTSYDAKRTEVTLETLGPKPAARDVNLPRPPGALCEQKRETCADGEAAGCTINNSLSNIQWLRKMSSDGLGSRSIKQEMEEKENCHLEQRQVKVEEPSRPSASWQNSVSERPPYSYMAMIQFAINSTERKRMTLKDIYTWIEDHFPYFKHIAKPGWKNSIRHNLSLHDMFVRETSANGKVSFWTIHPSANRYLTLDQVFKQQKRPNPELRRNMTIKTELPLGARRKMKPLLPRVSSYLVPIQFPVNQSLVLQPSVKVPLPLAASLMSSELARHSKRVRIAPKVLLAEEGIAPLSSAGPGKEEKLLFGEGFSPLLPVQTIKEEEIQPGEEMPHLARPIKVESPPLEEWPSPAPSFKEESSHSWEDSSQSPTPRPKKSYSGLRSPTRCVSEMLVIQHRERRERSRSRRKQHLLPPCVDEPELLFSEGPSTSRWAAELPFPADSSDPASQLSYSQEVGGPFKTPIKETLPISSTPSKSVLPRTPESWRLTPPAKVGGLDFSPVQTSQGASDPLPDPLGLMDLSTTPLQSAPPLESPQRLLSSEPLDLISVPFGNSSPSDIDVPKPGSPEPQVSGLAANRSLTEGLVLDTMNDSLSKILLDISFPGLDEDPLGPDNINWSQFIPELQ

[3] = target: T2, GFP-FOXM1B wild type (human); remark: listed apart in the source

Row | Molecule | binding [1] | binding [2] | binding [3]
1 | B-MYB (from UniProt P10244 1-700) | binds | binds | 
2 | LIN9 (from UniProt Q5TKA1 1-542) | binds | binds | 
3 | LIN37 (from UniProt Q96GY3 1-246) | binds | binds | 
4 | LIN54 (from UniProt Q6MZP7 1-749) | binds | binds | 
5 | PP1G (from UniProt P36873 1-323) (enzyme) |  | binds | 
6 | general transcription factor TF2B (from UniProt Q00403 1-316) | binds | binds | 
7 | B1 |  |  | binds
8 | B2 |  |  | binds
